PubChem BioAssay AID1259308 | NCATS | 2017

- Purpose: 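Knock-downs that increase output of a recombinant reporter protein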 (primary screen)
- Cell system: human HEK293 embryonic kidney cells stably expressing firefly luciferase (HEK-CMV-Luc2-Hygro)
- Reagent: single siRNA against human genes, 0.8 pmol siRNA per well
- Duration: 72 h
- Read-out: 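Reporter luminescence and viable-cell signal on separate replicate plates, given as percent of non-targeting control and median/MAD z-scores, plus per-cell luciferase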
- Scale: total luciferase, z-score and total luciferase, % of control: higher = more reporter protein produced; luciferase per cell, z-score: higher = more reporter output per viable cell; viable cells, % of control: higher = more viable cells
- Call rule: 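Active when the median/MAD z-score for overall luciferase is greater than 3; a gene was taken forward for validation with new siRNAs if at least two of its three siRNAs passed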
- Calls: active = raised luciferase; inactive = no rise
The whole screen tested about 59,000 reagents; this is a part drawn at random. Of all reagents, about 1,510 (2.6%) got an active call. 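Calls use total luciferase alone and ignore viability, so some active siRNAs may act by altering cell number.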 Reagents against one gene are numbered here.

no.	target	siRNA no.	total luciferase, z-score	total luciferase, % of control	luciferase per cell, z-score	viable cells, % of control	activity call
1	SSTR4	1	4.39	169	2.44	99.5	active
2	SSTR4	2	0.695	95.7	0.741	88	inactive
3	SSTR4	3	0.378	89.4	-0.119	103	inactive
4	PLPP3	1	-0.223	77.5	-0.558	100	inactive
5	PLPP3	2	-1.63	49.5	-1.49	81.8	inactive
6	PLPP3	3	-0.00783	81.7	-0.121	94.3	inactive
7	ZNF767P	1	0.493	91.7	-0.165	107	inactive
8	ZNF767P	2	1.66	115	0.827	103	inactive
9	ZNF767P	3	0.604	93.9	0.0569	103	inactive
10	CDR2L	1	-0.486	72.2	0.224	76.1	inactive
11	CDR2L	2	-0.648	69	-1	100	inactive
12	CDR2L	3	-0.384	74.3	-0.0287	83.6	inactive
13	LY6G5C	1	1.31	108	1.3	85.7	inactive
14	LY6G5C	2	0.915	100	0.238	105	inactive
15	LY6G5C	3	-1.3	56.1	-0.0246	63.1	inactive
16	UBE2B	1	0.587	93.6	0.989	80.6	inactive
17	UBE2B	2	-1.46	52.8	-0.195	62.1	inactive
18	UBE2B	3	-0.897	64.1	-1.83	116	inactive
19	POLR2E	1	-2.55	31.2	-2.8	72.8	inactive
20	POLR2E	2	-2.63	29.6	-2.95	72	inactive
21	POLR2E	3	-1.56	50.8	-1.56	85.7	inactive
22	H2AC15	1	-0.0662	80.6	-1.12	121	inactive
23	H2AC15	2	0.533	92.5	0.0535	102	inactive
24	H2AC15	3	1.75	117	1.01	100	inactive

6 entries already listed, arranged by “viable cells, % of control”, high to low.
target	siRNA no.	total luciferase, z-score	total luciferase, % of control	luciferase per cell, z-score	viable cells, % of control	activity call
ZNF767P	1	0.493	91.7	-0.165	107	inactive
SSTR4	3	0.378	89.4	-0.119	103	inactive
PLPP3	1	-0.223	77.5	-0.558	100	inactive
PLPP3	3	-0.00783	81.7	-0.121	94.3	inactive
SSTR4	2	0.695	95.7	0.741	88	inactive
PLPP3	2	-1.63	49.5	-1.49	81.8	inactive

The listing continues.
no.	target	siRNA no.	total luciferase, z-score	total luciferase, % of control	luciferase per cell, z-score	viable cells, % of control	activity call
25	STEEP1P1	1	0.951	101	2.63	56.3	inactive
26	STEEP1P1	2	0.402	89.9	0.285	93.2	inactive
27	STEEP1P1	3	0.489	91.6	-0.15	107	inactive
28	PLEKHA2	1	-0.235	77.2	-0.779	106	inactive
29	PLEKHA2	2	1.45	111	1.19	90.6	inactive
30	PLEKHA2	3	0.273	87.3	0.786	79.3	inactive
31	ZNF512B	1	-0.501	71.9	-0.872	101	inactive
32	ZNF512B	2	1.57	113	2.48	65.7	inactive
33	ZNF512B	3	-0.311	75.7	-0.392	93.8	inactive
34	MYO5C	1	0.652	94.9	0.155	102	inactive
35	MYO5C	2	0.234	86.5	-0.136	100	inactive
36	MYO5C	3	0.863	99.1	0.621	94	inactive
37	LOC344382	1	0.0626	83.1	0.49	81.7	inactive
38	LOC344382	2	-0.958	62.8	-0.854	87.9	inactive
39	LOC344382	3	-0.0248	81.4	-0.00261	91	inactive
